Assay results: article PMC3009601, “Structural Basis for Apoptosis Inhibition by Epstein-Barr Virus BHRF1” (PLoS Pathogens, 2010)
Results are given in words; binding and its absence hold for the method and conditions named. Binding seen in cells or lysates may run through a third protein. Binding can be weak; no strength is given. Where a sequence is shown, tags or fusion partners need not be part of it.

Target: T1, EE-tagged Bad (human) (UniProt Q92934)
T1 sequence: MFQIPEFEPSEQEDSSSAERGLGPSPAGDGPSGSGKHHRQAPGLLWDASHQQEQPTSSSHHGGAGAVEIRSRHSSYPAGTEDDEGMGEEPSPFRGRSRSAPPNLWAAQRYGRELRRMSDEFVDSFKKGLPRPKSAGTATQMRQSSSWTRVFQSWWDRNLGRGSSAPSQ
Assay: co-IP; lysates of 35S-labeled HEK-293T cells co-expressing FLAG-tagged BHRF1 and EE-tagged BH3-only proteins, immunoprecipitated with antibodies to FLAG, EE or a control (HA) tag; SDS-PAGE and autoradiography

For “Endogenous 14-3-3 (human (endogenous in HEK-293T))”, the binding was “binds”.
